# Assay results as given in patent US20030050236A1, “Compounds that enhance tumor death” (The University of Chicago, priority 2000, published 2003).
# For some assays here: At least one peptide structure holds a part that was inferred or is arguable (an end, a ring closure or a residue). For some assays here: At least one structure is not confirmed: it was looked up by name or label, or the drawing left a doubt. Some of these results come from one statement about several compounds together. Where a SMILES comes first, the peptide text is derived from it. [ ]: non-standard residue; d: D form. The star is where a group is joined. Palmitoyl = CCCCCCCCCCCCCCCC(=O)*; Dap = NC[C@H](N)C(=O)O
# How the values were obtained:
# PPT1 = molecular target: T1, PPT1 (Homo sapiens, UniProt P50897); experiment: In vitro PPT1 activity assay, [14C]palmitoyl peptide substrates, cell extract; conditions: Po, rhodopsin
# T1 sequence (P50897 28-306): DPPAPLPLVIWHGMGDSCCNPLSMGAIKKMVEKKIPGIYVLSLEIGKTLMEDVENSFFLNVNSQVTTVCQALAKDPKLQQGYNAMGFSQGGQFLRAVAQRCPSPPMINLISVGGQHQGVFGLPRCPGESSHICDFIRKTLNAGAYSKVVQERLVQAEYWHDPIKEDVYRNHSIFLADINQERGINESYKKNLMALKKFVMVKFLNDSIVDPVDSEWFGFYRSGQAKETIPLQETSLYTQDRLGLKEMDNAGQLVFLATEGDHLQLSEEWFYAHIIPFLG
# [1] = tested on: cancer cell lines (Table 6); format: cell-based, human; conditions: over 60 cell lines
# [2] = tested on: PPT1 overexpressing LA-N-5 cells; experiment: Cell death by MTT assay in PPT1 overexpressing cells; format: cell-based, human; conditions: for cell death (MTT): 6 h
# Procedure: Cells were plated in 24-well culture plates containing 500 μl media. After drug treatment, 50 μl MTT (5 mg/ml in PBS) was added and incubated for 20 min at 37° C. An aliquot of 500 μl of 10% sodium dodecyl sulfate in 0.01 N HCl was added. After incubating overnight, the absorbance at 570 nm was determined by spectrophotometry. Cell viability was calculated as percent cell survival by dividing absorbance [treatment-blank] by absorbance [control-blank], where treatment is the reading for the treated cells, control is for vehicle-treated cells and blank is for MTT added to the media without cells.
# In order to further verify that the increased susceptibility to drug-induced apoptosis of the AS-PPT1 treated cells was due to compromised PPT1 activity, the extent of cell death induced by C2-ceramide treatment in control was compared to DAP 1-treated cells. Treatment of cells with DAP1 alone induced 5-10% death of cells at DAP1 concentrations up to 100 μM for 6 h., as measured by MTT assay (FIG. 10A). […] In these cells, neither C2-ceramide, DAP1 alone or DAP1 (100 μM) followed by C2-ceramide (30 μM) for 6 h induced more than 10% cell death (FIG. 10B).
# LA-N-5 human neuroblastoma cells were grown in DMEM supplemented with 10% fetal bovine serum and 1% gentamicin. Clones of cells stably expressing PPT1 were selected and maintained by growing in media containing G418 (500 μg/ml) as described (Cho, et al., 2000b). Cell death was measured by the MTT method (Cho et al., 2000a; Cho et al., 2000b; Cho et al., 2000c).
# [3] = tested on: LA-N-5 human neuroblastoma cells; experiment: Cell viability / cell death by MTT assay; format: cell-based
# Akt = Akt phosphorylation immunoblot; format: cell-based, human; conditions: insulin 5 min; LY294002 pretreatment; vector-transfected cells
# Procedure: Cells were harvested in a lysis buffer containing 10 mM Tris (pH 7.4), 1 mM EGTA, 1 mM EDTA, 1 mM DTT, 25 mM NaF, 2 mM MgCl2 and 10 μg/ml aprotinin, leupeptin and pepstatin. For subcellular fractionation, the postnuclear cell extract was centrifuged at 100,000× g for 45 min to obtain a cytosolic fraction and the pellet was washed and resuspended in a lysis buffer to obtain a membrane fraction. Whole cell lysate (for caspase-3 and pFLAG-PPT1) or fractionated proteins (for p21Ras and GAP-43) were resolved by 10%, 12% or 15% of SDS-PAGE for GAP-43, caspase-3 and pFLAG-PPT1, or Ras, respectively. For immunoblotting with anti-Akt antibodies, cells were lysed in RIPA buffer consisting of 50 mM Tris (pH 7.4), 150 MM NaCl, 1 mM EGTA, 1% Nonidet P-40, 0.25% sodium deoxycholate, 1 mM NaF and protease inhibitors. […] Resolved proteins were transferred to membrane overnight, blots incubated with a blocking solution for 1 h, incubated with appropriate primary and secondary antibodies and the signals detected by ECL.
# To further investigate the downstream pathway by which PPT1 exerts protection against apoptosis, the activation of Akt was examined in control and PPT1 overexpressing cells. […] Therefore, the activation of Akt was analyzed by immunoblotting the cell extracts with an antibody specific to phosphorylated Akt (Ser473). […]
# LA-N-5 cells = experiment: DNA fragmentation assay (Hoechst 33285); format: cell-based, human; conditions: LY-294002 30 μM, C2 ceramide 25 μM
# Procedure: Quantification of DNA fragments was performed as described previously (Dawson et al., 1997). Briefly, cells were lysed in 5 mM Tris (pH 8.0) with 0.1% Triton X-100 and 20 mM EDTA and centrifuged at 20,000× g for 40 min at 4° C. For determination of DNA fragments lost in culture media, an aliquot of media was adjusted to a final concentration of 25 mM EDTA and centrifuged as described above. […] Fluorescence was detected by luminescent spectrometer using excitation 365 nm and emission 460 mn. DNA values were calculated using a standard curve obtained from the measurement of calf thymus DNA fluorescence.
# caspase 3 = experiment: Caspase 3-like activity (DEVD-AFC) in LA-N-5 cells; format: cell-based, human
# Procedure: Cells treated with drug or vehicle were harvested, washed with PBS and cell pellets lysed in 25 mM Hepes (pH 7.4), containing 2 mM dithiothreitol (DTT), 5 mM EDTA and […] digitonin. After centrifugation at 6,000 rpm for 10 min to remove cell debris and unruptured cells, an aliquot of the supernatant was added to a reaction buffer consisting of 25 mM Hepes (pH 7.4), 2 mM DTT, 5 mM EDTA, […] digitonin and 2.5 μg/ml DEVD-AFC. After 1 h incubation, the hydrolysis of substrate was quantified by fluorometry at excitation 400 mn and emission 505 nm. The blank reaction was done in the absence of cell lysate. Enzyme activity was expressed as the amount of fluorescence produced per mg protein/h.
Compound,dependence of inhibition on substrate (PPT1; GAP-43 vs Gα peptide),"effect on PPT1 activity (PPT1; cell extract preincubated 15 min at 37° C., GAP-43, Gα peptide substrates)",growth rate compared to control [1],cell death (MTT) ([2]; DAP1 (100 μM) followed by C2-ceramide (30 μM)) [%],"cell death (MTT) ([2]; single agent, PPT1 overexpressed more than 2-fold) [%]","killing by etoposide, daunorubicin, LY294002 and C2-ceramide in presence of DAP1 ([3]; 18 hours)",cell death ([3]; DAP1 (100 mM) alone for 24 h),"cell death (MTT) ([3]; DAP1 (up to 100 μM) 1 h preincubation, then C2-ceramide 30 μM) [%]",killing of intact LAN-5 human neuroblastoma cells ([3]; DAP1 alone),"death of cells (MTT) ([3]; DAP1 alone up to 100 μM, 6 h)",increase of C2-ceramide cell death by DAP1 preincubation ([3]; DAP1 up to 100 μM + C2-ceramide 30 μM) [fold],cell death ([3]; after 18 hours),"cell death ([3]; co-treatment with etoposide (0-50 μM) and DAP1 (100 μM), 24 h)",killing in combination with either etoposide or adriamycin ([3]; combination),"reduction of the amount of chemotherapeutic drug required to kill cells ([3]; etoposide, same killing as 100 μM etoposide) [%]",susceptibility of PPT1 overexpressing cells to killing ([2]; compared to LAN-5 cells),phosphorylation of Akt (Ser473) (Akt),DNA fragmentation (LA-N-5 cells),"activation of caspase 3 in PPT1-transfected cells, relative to control cell line (caspase 3; 24 h of treatment, PPT1-transfected vs vector LA-N-5)","activation of caspase 3 (caspase 3; LY-294002 30 μM, C2 ceramide 25 μM)"
"CCCCCCCCCCCCCCCC(=O)NC[C@H](NC(=O)CNC(C)=O)C(=O)N[C@H](C(=O)N[C@@H](CCCCN)C(=O)N[C@H](C(=O)N[C@@H](CCCCN)C(=O)N[C@@H](CCCCN)C(N)=O)[C@@H](C)CC)C(C)C [DAP1, AcG-palmitoyl diamino propionate-VKIKK] (Ac-G[Dap](Palmitoyl)VKIKK-NH2)","more potent towards Po, rhodopsin and GAP-43 peptides than towards Gα peptide",efficiently inhibited PPT1 activity,reduced in all of them,≤ 10,≤ 10,increased killing,20-25%,28,did not result in much killing,5-10%,~3,up to 20%,40% to 60%,the same level of killing with only half the concentration of drug,50,–,–,–,–,–
O=c1cc(N2CCOCC2)oc2c(-c3ccccc3)cccc12 [LY-294002],–,–,–,–,–,–,–,–,–,–,–,–,–,–,–,markedly decreased susceptibility to killing,blocked the insulin-induced effect,increase in DNA fragmentation,47-50%,time-dependent activation of caspase 3
